In assay [1] the target is T1, FLAG-tagged hUpf1 (human) (UniProt Q92900).
T1 sequence: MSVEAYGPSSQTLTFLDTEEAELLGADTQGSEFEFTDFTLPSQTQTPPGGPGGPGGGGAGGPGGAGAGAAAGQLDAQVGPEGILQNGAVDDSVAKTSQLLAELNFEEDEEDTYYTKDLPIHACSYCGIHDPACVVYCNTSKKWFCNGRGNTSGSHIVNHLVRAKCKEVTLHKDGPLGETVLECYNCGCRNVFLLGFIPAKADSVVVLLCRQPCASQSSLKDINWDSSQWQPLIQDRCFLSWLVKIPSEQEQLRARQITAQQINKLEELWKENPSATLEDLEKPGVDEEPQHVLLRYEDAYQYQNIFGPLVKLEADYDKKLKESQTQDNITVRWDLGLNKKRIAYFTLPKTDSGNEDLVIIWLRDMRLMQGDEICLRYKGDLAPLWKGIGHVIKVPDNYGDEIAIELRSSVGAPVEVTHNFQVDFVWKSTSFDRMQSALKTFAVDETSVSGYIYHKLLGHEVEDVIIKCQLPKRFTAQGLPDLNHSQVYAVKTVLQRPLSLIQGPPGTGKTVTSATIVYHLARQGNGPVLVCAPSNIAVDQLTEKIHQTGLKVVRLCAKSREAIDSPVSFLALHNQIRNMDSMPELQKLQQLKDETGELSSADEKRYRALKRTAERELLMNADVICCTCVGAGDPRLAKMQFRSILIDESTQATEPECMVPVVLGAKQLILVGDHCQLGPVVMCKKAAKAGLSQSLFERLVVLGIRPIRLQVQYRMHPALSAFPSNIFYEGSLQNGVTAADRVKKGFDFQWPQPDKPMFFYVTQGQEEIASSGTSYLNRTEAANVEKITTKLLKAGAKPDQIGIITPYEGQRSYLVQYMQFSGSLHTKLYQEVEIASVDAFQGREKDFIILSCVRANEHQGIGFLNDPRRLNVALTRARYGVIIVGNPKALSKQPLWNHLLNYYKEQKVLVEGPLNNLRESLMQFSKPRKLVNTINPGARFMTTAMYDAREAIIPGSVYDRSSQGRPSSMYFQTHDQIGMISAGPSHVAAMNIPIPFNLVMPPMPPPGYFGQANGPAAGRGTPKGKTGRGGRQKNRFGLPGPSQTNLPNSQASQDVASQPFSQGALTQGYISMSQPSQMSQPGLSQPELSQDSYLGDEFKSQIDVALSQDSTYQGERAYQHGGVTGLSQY
The assay is described as follows: co-IP; HEK 293T cells co-transfected with FLAG- and Myc-tagged proteins; RNase A-treated extract, 150 mM NaCl; anti-FLAG M2 agarose, 2 h, 4 °C; eluted with FLAG peptide; anti-Myc Western blot.

Assay [2] concerns the target Myc-tagged eRF3 (wild type, longer isoform) (human). Put plainly: pull-down; Myc-eRF3 immobilised on anti-Myc resin; affinity-purified FLAG-tagged proteins added in 50 μl NET-2 with 0.1 mg/ml BSA and 0.2 mg/ml FLAG peptide, 4 °C, 2-3 h; anti-FLAG Western blot; increasing amounts of FLAG-PABPC1 or FLAG-hnRNP A1 as competitor; both purified.

These are yes or no findings as the source states them, for the method shown. Binding can be weak; no strength is given. Where a sequence is shown, tags or fusion partners need not be part of it. For part of these data: Binding seen in cells or lysates may run through a third protein.

As for “Myc-tagged eRF3 (wild type, longer isoform) (human)”, the binding result in assay [1] was “binds”.

With “Myc-tagged eRF3 KAKA mutant protein (human)”, in assay [1], the binding result is on record as “binds”.

B1: FLAG-tagged hUpf1 (protein, UniProt Q92900 1-1129)
chain: T1 sequence
B1: the binding result in assay [2] was “binds”.

These data come from publication PMC2689706.
